Results on 30 compounds are retold here after PubChem BioAssay AID651804 (National Center for Advancing Translational Sciences (NCATS), 2012).

Amino acid sequences for entries named in this document (tags omitted). A change or cut given only in a name is not applied to a line headed by its entry.
UniProt P11308: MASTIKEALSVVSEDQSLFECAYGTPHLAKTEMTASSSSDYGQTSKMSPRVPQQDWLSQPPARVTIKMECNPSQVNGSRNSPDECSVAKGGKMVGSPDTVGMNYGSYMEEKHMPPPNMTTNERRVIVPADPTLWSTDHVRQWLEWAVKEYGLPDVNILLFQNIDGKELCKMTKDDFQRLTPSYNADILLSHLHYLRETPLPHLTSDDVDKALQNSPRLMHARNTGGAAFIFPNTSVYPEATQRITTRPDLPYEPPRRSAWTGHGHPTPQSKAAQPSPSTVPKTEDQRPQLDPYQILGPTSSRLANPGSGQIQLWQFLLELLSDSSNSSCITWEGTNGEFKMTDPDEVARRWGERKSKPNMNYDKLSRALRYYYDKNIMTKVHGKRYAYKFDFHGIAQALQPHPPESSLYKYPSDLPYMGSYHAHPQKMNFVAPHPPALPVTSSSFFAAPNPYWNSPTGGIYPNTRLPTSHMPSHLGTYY

About 20 (2%) of roughly 1,200 compounds were called active. Another 23% or so got no clear call; they are omitted. Calls come from the whole dose curve; as a rule, active = well fitted inhibition curve with a large enough effect; inconclusive = small, poorly fitted or top-dose-only effect; inactive = no such curve, though single readings can be large or run the other way. This is one part of the list.

This assay has as its target Transcriptional regulator ERG (Homo sapiens) (UniProt P11308). As to the kind of experiment: qHTS for Small Molecule Inhibitors of the ERG Ets/DNA interaction: HTRF assay against cherry picks. To be noted: His-ERG Ets domain with biotin-DNA; series mostly up to 154 µM; activity change, negative = inhibition: at the top concentration. Put shortly:
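HTRF of His-tagged ERG Ets domain (200 nM solution) with biotin-DNA (200 nM solution) in 300mM KCl, 50mM Tris-HCl pH 7.5, 1mM EDTA, 1mM DTT; 10 min RT. Anti-His cryptate donor plus streptavidin acceptor added, 10 min, FRET read at 615/665 nm.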
In general terms: qHTS replaces the single test concentration by a dilution series.
Consider `Cc1ccc(OCC(=O)OCC(=O)c2ccccc2)cc1C`, for which the “activity change, negative = inhibition” value is inactive: -5.15%.
Then `CCCC(c1nnnn1CS(=O)(=O)c1ccc(C)cc1)N1CCN(CC)CC1` (stereo not given), with inactive: -23.3%; and `CCOC(=O)C(c1ccccc1)C(Nc1ccc(F)cc1)c1ccccn1` (stereo not given), with inactive: -17.7%; and `COC(=O)Cn1c(=NC(=O)CN2C(=O)CCC2=O)sc2cc(S(N)(=O)=O)ccc21`, with inactive: -14.5%.
On to `COCC1CCN(Cc2nc(-c3ccc4c(c3)OCO4)no2)C1` (stereo not given), for which the “activity change, negative = inhibition” value is inactive: 1.59%.
Consider `CC1CC(=O)N(CC(=O)Nc2cccc(Cl)c2)c2ccccc2S1(=O)=O` (stereo not given), for which the “activity change, negative = inhibition” value is inactive: -28.9%.
The figure for `Cc1ccc2c(c1)N(CCC(=O)NCCCN1CCCC1)C(=O)CO2` is inactive: -0.849%.
The figure for `Cc1ccc(NS(=O)(=O)c2cc(Br)cnc2N)c(Cl)c1` is inactive: -21.4%; for `Cc1cc(C)cc(-n2ccnc2SCC(=O)Nc2ccc(C)c(Cl)c2)c1` it is inactive: -25.1%; for `O=C(Nc1c(C(=O)C2CC2)oc2ccccc12)c1ccc(Cl)cc1` it is inactive: -11.9%.
Then `CC(CCC(=O)O)C1CCC2C3C(O)CC4CC(O)CCC4(C)C3CC(O)C12C` (stereo not given), with inactive: -5.84%; and `O=C(N/N=C/c1cccs1)c1cccs1`, with inactive: -26.8%; and `Cc1nc(-c2ccc(F)cc2)c(CC(=O)N2CCN(S(=O)(=O)c3cccc(F)c3)CC2)s1`, with inactive: -27.8%.
Regarding `CCc1ccccc1N(CC(=O)NCc1ccco1)C(=O)CCC(=O)Nc1ccccn1`, the “activity change, negative = inhibition” value was inactive: -24%.
Turning to `CCOCCn1c(CN2CCCCC2)nc2c1c(=O)n(C)c(=O)n2C`, the “activity change, negative = inhibition” value is inactive: -23%.
Then `C[C@H](NC(=O)[C@@H]1Cc2ccccc2CN1C(=O)OC(C)(C)C)C(=O)NC1CCCCC1`, with inactive: -5.84%.
For the compound `O=C(O)c1ccc(CSCc2ccccc2F)o1`, the “activity change, negative = inhibition” value is inactive: -27.1%.
The figure for `CCC1CCC(NC(=O)Nc2cccc(OC)c2)CC1` (stereo not given) is inactive: -3.71%.
Then `Cc1cccc(Nc2c(O)nc[nH]c2=O)c1`, with inactive: -27.5%; and `CCc1c(C)sc(NC(=O)OC)c1C(=O)N1CCCCC1`, with inactive: -20.9%.
The figure for `Cc1ccc(CNC(=O)CSCc2ccc(F)cc2)cc1` is inactive: -23.9%; for `S=c1nc[nH]c2nc[nH]c12` it is inactive: -36.8%.
In the case of `CC(=O)Nc1ccc(-c2csc(NC(=O)C3CC(=O)N(c4ccc5c(c4)OCCO5)C3)n2)cc1` (stereo not given), the “activity change, negative = inhibition” value is inactive: -12.9%.
Then `CCOC(=O)C1=C(C)N=c2s/c(=C\c3cc(OC)c(OC)c(OC)c3)c(=O)n2C1/C=C/c1ccccc1` (stereo not given), with inactive: -12.1%; and `CC(=O)Nc1ccc2c(c1)NC(=O)CC2`, with inactive: -12.5%; and `CC(C)(CO)CNC(=O)c1ccc(OC2CCN(C(=O)C3CC3)CC2)cc1`, with inactive: -13.2%.
The figure for `CC(C)=CCC/C(C)=C/CNC(=O)C[C@H]1C[C@H](C(=O)N2CCCCC2)[C@@]2(CCc3ccccc3)c3[nH]c4cc(-c5ccco5)ccc4c3CCN2C1=O` is inactive: -27.2%; for `O=C1Nc2cc(C(=O)N3CCOCC3)ccc2SC1N1CCOCC1` (stereo not given) it is inactive: -30.1%.
For `COc1ccccc1CN1CCCCC1C(=O)O` (stereo not given), the “activity change, negative = inhibition” value is inactive: -4.93%.
Then `COc1ccc(Cl)cc1N=Cc1c(O)c2ccccc2oc1=O`, with inactive: -24.1%.
